The text below walks through data of the supplement of paper PMC12819154, “High-throughput peptide-centric local stability assay extends protein–ligand identification to membrane proteins, tissues and bacteria” (Nature Structural & Molecular Biology, 2025).

Sequences of proteins named here, by UniProt entry; tags and fusion partners are left off. A change or cut given only in a name is not applied to a line headed by its entry.
UniProt P08551: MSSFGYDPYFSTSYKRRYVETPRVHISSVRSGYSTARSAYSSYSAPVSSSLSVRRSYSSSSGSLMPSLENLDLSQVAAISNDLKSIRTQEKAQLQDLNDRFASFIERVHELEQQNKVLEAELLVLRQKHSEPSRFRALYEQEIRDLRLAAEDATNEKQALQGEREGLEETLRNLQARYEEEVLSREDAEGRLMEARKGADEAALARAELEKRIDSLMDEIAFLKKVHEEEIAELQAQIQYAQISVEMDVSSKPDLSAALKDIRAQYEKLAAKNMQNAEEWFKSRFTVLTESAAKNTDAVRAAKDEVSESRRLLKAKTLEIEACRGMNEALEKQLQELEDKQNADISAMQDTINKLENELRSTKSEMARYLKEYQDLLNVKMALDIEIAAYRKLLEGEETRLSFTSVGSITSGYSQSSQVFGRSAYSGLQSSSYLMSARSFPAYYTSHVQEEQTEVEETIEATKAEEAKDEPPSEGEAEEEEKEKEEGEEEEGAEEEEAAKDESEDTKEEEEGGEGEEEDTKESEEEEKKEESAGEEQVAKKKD
UniProt P08074: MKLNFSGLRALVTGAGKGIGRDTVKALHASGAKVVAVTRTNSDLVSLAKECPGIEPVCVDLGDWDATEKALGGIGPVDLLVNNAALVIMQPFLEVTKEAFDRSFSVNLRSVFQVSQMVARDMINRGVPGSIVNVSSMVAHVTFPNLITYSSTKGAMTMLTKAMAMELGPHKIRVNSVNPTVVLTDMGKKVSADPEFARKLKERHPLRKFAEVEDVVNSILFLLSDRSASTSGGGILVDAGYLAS
UniProt P11416, whole entry: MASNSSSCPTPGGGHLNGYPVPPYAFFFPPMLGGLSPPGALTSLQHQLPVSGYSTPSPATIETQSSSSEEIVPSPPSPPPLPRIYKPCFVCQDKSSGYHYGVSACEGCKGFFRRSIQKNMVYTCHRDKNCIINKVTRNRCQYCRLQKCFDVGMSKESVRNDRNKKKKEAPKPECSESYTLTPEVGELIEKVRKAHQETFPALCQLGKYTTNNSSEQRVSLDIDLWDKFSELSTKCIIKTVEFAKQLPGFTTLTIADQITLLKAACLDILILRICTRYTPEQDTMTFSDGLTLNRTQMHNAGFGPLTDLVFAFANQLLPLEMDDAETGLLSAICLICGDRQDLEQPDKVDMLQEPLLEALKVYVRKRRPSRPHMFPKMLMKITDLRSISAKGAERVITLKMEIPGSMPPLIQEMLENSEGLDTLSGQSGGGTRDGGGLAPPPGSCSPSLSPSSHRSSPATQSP
UniProt P08113, whole entry: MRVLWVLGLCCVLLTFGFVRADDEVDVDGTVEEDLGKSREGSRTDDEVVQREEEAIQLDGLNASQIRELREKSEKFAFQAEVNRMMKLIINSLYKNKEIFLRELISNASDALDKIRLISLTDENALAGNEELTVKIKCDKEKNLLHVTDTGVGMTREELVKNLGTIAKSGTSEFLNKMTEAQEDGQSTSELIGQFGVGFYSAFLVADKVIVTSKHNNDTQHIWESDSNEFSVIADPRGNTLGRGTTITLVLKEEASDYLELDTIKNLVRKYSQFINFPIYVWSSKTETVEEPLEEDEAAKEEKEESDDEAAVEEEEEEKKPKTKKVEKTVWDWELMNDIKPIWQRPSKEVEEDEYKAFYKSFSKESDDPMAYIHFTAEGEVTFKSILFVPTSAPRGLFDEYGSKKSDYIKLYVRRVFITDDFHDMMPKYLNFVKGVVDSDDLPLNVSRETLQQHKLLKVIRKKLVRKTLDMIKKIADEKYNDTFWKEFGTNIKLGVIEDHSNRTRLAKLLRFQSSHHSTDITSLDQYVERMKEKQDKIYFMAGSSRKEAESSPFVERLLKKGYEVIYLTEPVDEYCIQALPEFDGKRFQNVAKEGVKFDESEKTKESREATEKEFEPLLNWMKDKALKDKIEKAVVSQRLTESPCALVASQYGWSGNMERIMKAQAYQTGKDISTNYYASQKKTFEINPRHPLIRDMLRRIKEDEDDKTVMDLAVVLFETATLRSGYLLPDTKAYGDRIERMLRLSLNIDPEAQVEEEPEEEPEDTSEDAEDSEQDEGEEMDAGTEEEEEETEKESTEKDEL
UniProt P11531: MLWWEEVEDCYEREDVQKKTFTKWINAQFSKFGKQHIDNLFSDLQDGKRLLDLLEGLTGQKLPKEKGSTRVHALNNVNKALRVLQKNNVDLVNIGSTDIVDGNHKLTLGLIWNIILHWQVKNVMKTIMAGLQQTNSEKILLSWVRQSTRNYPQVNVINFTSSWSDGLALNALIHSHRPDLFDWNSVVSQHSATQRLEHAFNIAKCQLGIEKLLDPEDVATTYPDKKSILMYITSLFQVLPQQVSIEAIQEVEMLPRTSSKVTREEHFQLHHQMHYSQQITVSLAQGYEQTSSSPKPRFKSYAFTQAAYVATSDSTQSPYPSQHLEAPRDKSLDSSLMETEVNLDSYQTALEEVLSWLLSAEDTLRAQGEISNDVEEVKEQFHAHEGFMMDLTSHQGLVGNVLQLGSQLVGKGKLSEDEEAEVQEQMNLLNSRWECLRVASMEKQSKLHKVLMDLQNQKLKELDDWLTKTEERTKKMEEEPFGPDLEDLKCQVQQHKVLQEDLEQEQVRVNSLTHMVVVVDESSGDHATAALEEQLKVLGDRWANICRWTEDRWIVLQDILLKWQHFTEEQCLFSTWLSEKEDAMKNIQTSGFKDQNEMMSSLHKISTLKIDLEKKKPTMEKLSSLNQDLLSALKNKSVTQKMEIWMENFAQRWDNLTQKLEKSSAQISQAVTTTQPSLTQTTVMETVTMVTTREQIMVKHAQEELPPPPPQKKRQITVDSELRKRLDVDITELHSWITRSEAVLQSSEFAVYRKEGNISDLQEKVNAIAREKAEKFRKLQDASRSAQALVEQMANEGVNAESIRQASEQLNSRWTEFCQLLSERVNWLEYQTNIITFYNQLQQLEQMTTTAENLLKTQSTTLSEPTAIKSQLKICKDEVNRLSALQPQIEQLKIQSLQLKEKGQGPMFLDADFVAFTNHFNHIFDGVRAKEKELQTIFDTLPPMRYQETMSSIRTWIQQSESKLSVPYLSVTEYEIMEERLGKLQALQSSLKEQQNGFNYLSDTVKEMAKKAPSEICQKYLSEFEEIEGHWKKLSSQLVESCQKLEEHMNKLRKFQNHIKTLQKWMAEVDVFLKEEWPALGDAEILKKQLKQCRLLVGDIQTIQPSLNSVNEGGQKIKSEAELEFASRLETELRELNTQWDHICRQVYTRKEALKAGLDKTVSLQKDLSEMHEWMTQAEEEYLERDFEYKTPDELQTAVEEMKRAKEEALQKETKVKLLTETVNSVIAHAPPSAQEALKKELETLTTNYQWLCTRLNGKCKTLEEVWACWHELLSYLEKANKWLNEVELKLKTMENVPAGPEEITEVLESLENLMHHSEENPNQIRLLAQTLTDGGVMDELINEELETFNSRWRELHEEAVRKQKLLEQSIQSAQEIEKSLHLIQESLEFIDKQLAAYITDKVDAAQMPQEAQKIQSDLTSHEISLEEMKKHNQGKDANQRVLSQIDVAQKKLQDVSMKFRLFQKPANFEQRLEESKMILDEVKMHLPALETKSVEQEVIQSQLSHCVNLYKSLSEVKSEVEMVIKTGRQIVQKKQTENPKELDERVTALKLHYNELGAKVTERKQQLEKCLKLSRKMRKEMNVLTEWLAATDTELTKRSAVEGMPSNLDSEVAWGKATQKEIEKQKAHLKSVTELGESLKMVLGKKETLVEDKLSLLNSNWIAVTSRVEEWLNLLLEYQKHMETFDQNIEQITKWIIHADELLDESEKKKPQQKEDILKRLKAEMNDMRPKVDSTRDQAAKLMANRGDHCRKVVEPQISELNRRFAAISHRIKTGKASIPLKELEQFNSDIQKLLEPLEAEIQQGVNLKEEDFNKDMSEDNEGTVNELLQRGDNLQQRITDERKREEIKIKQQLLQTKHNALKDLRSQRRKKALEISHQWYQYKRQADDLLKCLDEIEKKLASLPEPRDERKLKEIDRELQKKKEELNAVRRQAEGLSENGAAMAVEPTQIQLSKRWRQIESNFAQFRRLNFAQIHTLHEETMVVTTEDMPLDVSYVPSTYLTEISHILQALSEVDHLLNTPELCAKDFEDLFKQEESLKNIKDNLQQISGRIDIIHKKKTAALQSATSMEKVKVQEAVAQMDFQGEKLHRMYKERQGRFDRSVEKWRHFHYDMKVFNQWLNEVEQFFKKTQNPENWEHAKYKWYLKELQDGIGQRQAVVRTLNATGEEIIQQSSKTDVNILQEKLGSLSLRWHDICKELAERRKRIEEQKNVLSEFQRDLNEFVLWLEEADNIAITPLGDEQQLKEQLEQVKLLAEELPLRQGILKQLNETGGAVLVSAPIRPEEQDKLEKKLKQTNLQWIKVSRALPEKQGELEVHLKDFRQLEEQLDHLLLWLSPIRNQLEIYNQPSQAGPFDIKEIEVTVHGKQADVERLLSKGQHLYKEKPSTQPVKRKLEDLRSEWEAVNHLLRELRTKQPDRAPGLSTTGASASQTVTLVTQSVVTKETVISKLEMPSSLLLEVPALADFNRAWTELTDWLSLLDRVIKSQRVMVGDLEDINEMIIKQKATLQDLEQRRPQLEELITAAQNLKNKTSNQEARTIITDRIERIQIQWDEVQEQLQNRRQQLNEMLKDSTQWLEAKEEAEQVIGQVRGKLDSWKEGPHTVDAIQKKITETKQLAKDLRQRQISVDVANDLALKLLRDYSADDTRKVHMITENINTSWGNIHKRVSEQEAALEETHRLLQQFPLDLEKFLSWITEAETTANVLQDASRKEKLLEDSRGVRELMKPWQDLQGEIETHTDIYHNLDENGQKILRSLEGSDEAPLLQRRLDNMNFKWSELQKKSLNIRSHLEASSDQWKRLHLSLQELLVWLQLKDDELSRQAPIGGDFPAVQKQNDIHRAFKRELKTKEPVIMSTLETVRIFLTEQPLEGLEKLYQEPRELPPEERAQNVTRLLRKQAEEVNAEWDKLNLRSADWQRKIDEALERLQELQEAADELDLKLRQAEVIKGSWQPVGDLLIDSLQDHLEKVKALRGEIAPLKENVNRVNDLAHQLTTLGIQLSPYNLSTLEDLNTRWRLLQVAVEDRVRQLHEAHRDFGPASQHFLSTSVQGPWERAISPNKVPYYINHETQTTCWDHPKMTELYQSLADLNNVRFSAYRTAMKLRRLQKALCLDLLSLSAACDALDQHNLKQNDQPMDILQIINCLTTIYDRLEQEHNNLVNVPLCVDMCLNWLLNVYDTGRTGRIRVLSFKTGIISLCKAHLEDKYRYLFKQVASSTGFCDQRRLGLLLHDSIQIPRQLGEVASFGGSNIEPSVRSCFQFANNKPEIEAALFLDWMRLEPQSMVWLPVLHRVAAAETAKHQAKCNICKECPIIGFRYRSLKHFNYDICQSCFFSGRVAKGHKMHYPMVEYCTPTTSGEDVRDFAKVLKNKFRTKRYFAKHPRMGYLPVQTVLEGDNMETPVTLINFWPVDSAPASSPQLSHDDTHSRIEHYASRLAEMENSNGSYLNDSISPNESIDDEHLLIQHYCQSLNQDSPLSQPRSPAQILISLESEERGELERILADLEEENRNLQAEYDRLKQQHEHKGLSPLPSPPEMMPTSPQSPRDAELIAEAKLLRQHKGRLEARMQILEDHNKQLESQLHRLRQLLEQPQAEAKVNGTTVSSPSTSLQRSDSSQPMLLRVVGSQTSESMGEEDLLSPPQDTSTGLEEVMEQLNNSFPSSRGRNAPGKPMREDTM
UniProt P01887: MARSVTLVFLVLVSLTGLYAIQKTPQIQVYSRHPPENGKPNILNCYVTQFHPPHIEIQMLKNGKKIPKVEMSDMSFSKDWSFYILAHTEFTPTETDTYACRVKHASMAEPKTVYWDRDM
UniProt P13597, whole entry: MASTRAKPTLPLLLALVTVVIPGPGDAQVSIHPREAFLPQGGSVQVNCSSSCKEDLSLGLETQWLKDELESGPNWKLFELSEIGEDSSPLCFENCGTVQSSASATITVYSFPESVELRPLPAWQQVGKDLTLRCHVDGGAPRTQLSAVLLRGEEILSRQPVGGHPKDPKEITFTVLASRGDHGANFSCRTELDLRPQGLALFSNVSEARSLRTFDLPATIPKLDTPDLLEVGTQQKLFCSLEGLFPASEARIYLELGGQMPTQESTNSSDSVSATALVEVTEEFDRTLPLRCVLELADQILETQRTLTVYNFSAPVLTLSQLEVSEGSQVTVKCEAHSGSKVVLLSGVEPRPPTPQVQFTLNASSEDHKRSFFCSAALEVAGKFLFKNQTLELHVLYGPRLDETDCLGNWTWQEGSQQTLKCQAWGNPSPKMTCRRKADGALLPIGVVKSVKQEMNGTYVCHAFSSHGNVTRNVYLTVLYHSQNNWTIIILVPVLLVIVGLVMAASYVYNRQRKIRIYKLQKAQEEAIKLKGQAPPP
UniProt P05367: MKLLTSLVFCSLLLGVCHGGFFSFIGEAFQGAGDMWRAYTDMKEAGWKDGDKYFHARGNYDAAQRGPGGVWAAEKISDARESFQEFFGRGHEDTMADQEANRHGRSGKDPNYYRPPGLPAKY

This is one part of the list. Most entries show no effect beyond the scatter of the controls.

Compound in the assay: CN[C@@H]1C[C@H]2O[C@@](C)([C@@H]1OC)n1c3ccccc3c3c4c(c5c6ccccc6n2c5c31)C(=O)NC4 [staurosporine]
The assay is described as follows: log2 fold change of tryptic peptide abundance, ligand vs vehicle (limited proteolysis) (log2 ratio); higher = more trypsin-susceptible (destabilized). The note with it: ligand concentration: 20 uM; sample: mouse liver crude lysate; replicate design: treated separately.
On to “UniProt P08122 (peptide sequence: SVSIGYLLVK, peptide start residue: 1480)”, for which the log2 fold change came to 0.484.
Then “UniProt P08551 (peptide sequence: LAAEDATNEK, peptide start residue: 148)”, with 0.582; and “UniProt P08074 (peptide sequence: ALVTGAGKGIGR, peptide start residue: 10)”, with 0.543; and “UniProt O88951 (peptide sequence: RGDQLLSVNGVSVEGEHHEK, peptide start residue: 151)”, with -0.19.
Then “UniProt P13504 (peptide sequence: YPFICVVK, peptide start residue: 311)”, with 0.293; and “UniProt O88983 (peptide sequence: GLGFDEIR, peptide start residue: 134)”, with -0.281.
Take “UniProt P01029 (peptide sequence: RAPHIQLVAQSPWLRNTAFK, peptide start residue: 102)”: the log2 fold change was 0.434.
Then “UniProt P11416 (peptide sequence: NMVYTCHR, peptide start residue: 119)”, with -0.185; and “UniProt P00015 (peptide sequence: MIFAGIKK, peptide start residue: 81)”, with 0.000113; and “UniProt P01901 (peptide sequence: YFVTAVSRPGLGEPR, peptide start residue: 28)”, with -0.187.
Then “UniProt P00186 (peptide sequence: YTSFVPFTIPHSTTR, peptide start residue: 376)”, with -0.255; and “UniProt P15535 (peptide sequence: KNEPNPQR, peptide start residue: 349)”, with -0.468; and “UniProt P08032 (peptide sequence: GLADVQNLLR, peptide start residue: 716)”, with 0.184.
On to “UniProt P08046 (peptide sequence: AFATQSGSQDLK, peptide start residue: 292)”, for which the log2 fold change stood at 0.0825.
Then “UniProt P13595 (peptide sequence: TLDGHMVVR, peptide start residue: 355)”, with 0.406; and “UniProt O88942 (peptide sequence: MVLSGHNFLQDSK, peptide start residue: 615)”, with 0.432.
As for “UniProt P08113 (peptide sequence: EKSEKFAFQAEVNR, peptide start residue: 71)”, the log2 fold change was -0.476.
For the target “UniProt P11531 (peptide sequence: IEHYASR, peptide start residue: 3430)”, the log2 fold change was -0.221.
Then “UniProt P01887 (peptide sequence: TVYWDRDM, peptide start residue: 112)”, with -0.202; and “UniProt P0DOV1 (peptide sequence: SQPQNQNIPR, peptide start residue: 211)”, with 0.0893; and “UniProt P04939 (peptide sequence: TDYDNYIMIHLINKK, peptide start residue: 114)”, with -0.398.
Then “UniProt P06537 (peptide sequence: SQELFDEIR, peptide start residue: 697)”, with -0.152; and “UniProt P05627 (peptide sequence: LASPELER, peptide start residue: 71)”, with 0.0921; and “UniProt P07214 (peptide sequence: LEAGDHPVELLAR, peptide start residue: 205)”, with -0.14.
Then “UniProt P13597 (peptide sequence: AQEEAIKLK, peptide start residue: 523)”, with -0.238; and “UniProt P10637 (peptide sequence: IGSLDNITHVPGGGNK, peptide start residue: 646)”, with -0.334; and “UniProt P05367 (peptide sequence: ESFQEFFGR, peptide start residue: 81)”, with 0.0656.
Take “UniProt O89019 (peptide sequence: KREEENK, peptide start residue: 596)”: the log2 fold change came to 0.216.
“UniProt P10853 (peptide sequence: KESYSVYVYK, peptide start residue: 35)”: the log2 fold change turned out to be 0.242.
Then “UniProt P04117 (peptide sequence: LGVEFDEITADDRK, peptide start residue: 67)”, with -0.882.
Then “UniProt O89017 (peptide sequence: HQADACHAYQIIHR, peptide start residue: 47)”, with 0.0647; and “UniProt P10518 (peptide sequence: LAEVALAYAK, peptide start residue: 150)”, with 0.319.
Then “UniProt P14148 (peptide sequence: TTHFVEGGDAGNREDQINR, peptide start residue: 246)”, with 0.16; and “UniProt P13864 (peptide sequence: LHKEELSEEGYLAK, peptide start residue: 68)”, with -0.202.
Turning to “UniProt P00184 (peptide sequence: NPHLSLTR, peptide start residue: 59)”, the log2 fold change was -0.0657.
Then “UniProt P07310 (peptide sequence: LNYKPQEEYPDLSK, peptide start residue: 12)”, with -0.362.
Then “UniProt P14602 (peptide sequence: EGVVEITGK, peptide start residue: 119)”, with -0.152; and “UniProt O89001 (peptide sequence: TSDDEVFR, peptide start residue: 281)”, with -0.281; and “UniProt P06745 (peptide sequence: LRELFEADPER, peptide start residue: 26)”, with -0.27.
